Laboratory results published in US6592910B1, “Methods of treating clinical diseases with isoflavones” (Board of Trustees, Southern Illinois University, priority 1999, dated 2003).
Marks after values point to notes of the source that are not given here.

Tested on: male Sprague-Dawley rats
Test: Feed and weight measurements in male Sprague-Dawley rats injected for 6 weeks
Type: in vivo, rat
Conditions: for FER compared to V / Feed intake compared to V treated animals: P<0.05; for FER / Feed Intake: daily s.c. injection, 6 weeks; for FER: 0.1 μg/g body weight
Description: Forty male Sprague-Dawley rats (5 wk old, n=9-10 rats/treatment, from Harlan Sprague-Dawley, Inc., Indianapolis, Ind.) were injected with either genistein (G), daidzein (D), estradiol (E), or a vehicle control (V). Each animal in group V received a daily 0.1 cc subcutaneous injection, for six weeks, of a 10% ethanol-90% olive oil solution; the other treatments received their respective compound as a daily 0.1 cc subcutaneous injection, for six weeks, e.g., 0.1 μg of compound/g of body weight, in a 10% ethanol-90% olive oil solution.
Animal weight and feed intake were measured weekly during the six week study, and the subsequent feed-efficiency ratio [FER (g of weight change/g of feed intake)] was determined. Following sacrifice, the abdominal fat pads, liver, and reproductive organs were removed and weighed for comparison.
These studies used a randomized design. All data were analyzed by one-way analysis of variance (ANOVA) and post-hoc comparisons were made with Tukey pairwise comparisons test. Significance was confirmed at P≦0.05 (SYSTAT 7.0, SPSS INC., 1997), and all values are reported as means±standard error of the mean.

Row | SMILES | FER compared to V | Feed intake compared to V treated animals | FER | Feed Intake
1 | O=c1c(-c2ccc(O)cc2)coc2cc(O)cc(O)c12 [G, genistein] | lower (P<0.05) | significantly (P<0.05) higher | .277 g of weight change/g of food intake | 855.80^a g
2 | O=c1c(-c2ccc(O)cc2)coc2cc(O)ccc12 [D, daidzein] | lower (P<0.05) | significantly (P<0.05) higher | .284 g of weight change/g of food intake | 857.44^a g
